This is one part of the list. Many values rest on one well or one pass, so single values are uncertain.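 The apoptosis fraction was the count of cleaved-PARP antibody-stained nuclei relative to all DNA-stained nuclei, imaged in 1,536-well plates. Screening doses were set so most cells survived, and baseline and induced cleaved-PARP levels vary greatly across cell lines.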

Data on 15 compounds can be found in the supplement of paper PMC4604168 (melanoma cell lines).

The assay relates to MZ2-MEL. The experiment in a line: cleaved PARP positive nuclei fraction relative to DMSO control; melanoma cells; higher = more apoptosis. Particulars: library dose: low library concentration; 72 h.
`C[As](C)SC[C@H](NC(=O)CC[C@H](N)C(=O)O)C(=O)NCC(=O)O` [Darinaparsin] + O=C(Nc1ccccc1)c1cc([N+](=O)[O-])ccc1Cl [GW9662] (first compound 0.4 µM, partner dose 2 µM): the “cleaved PARP positive nuclei fraction” value was determined as 58.2%.
In the case of `C[C@]12O[C@H](C[C@]1(O)CO)n1c3ccccc3c3c4c(c5c6ccccc6n2c5c31)CNC4=O` [Lestaurtinib] + O=C(O)c1ccc(-c2c[nH]c3ncc(-c4ccccc4)cc23)cc1C1CCCC1 [GSK650394] (first compound 0.004 µM, partner dose 0.16 µM) it was 112%.
`C[C@]12O[C@H](C[C@]1(O)CO)n1c3ccccc3c3c4c(c5c6ccccc6n2c5c31)CNC4=O` [Lestaurtinib] + Oc1cc(-c2nc(-c3ccccc3)[nH]c2-c2ccncc2)ccc1Cl [L779450] (first compound 0.004 µM, partner dose 0.2 µM): the “cleaved PARP positive nuclei fraction” value amounted to 60.3%.
In the case of `COc1ccc2c(c1)CCC1C2CCC2(C)C(NCCCCCCN3C(=O)C=CC3=O)CCC12` (stereo not given) + C/C(O)=C(\C#N)C(=O)Nc1cc(Br)ccc1Br [LFM-A13] (first compound 0.4 µM, partner dose 2 µM) it was 203%; in that of `Cc1cc(SCc2sc(-c3ccc(C(F)(F)F)c(F)c3)nc2C)ccc1OCC(=O)O` + C/C(O)=C(\C#N)C(=O)Nc1cc(Br)ccc1Br [LFM-A13] (first compound 2 µM, partner dose 2 µM), 120%.
In the case of `COC(=O)c1sccc1S(=O)(=O)Nc1ccc(Nc2ccccc2)cc1OC` + C/C(O)=C(\C#N)C(=O)Nc1cc(Br)ccc1Br [LFM-A13] (first compound 1 µM, partner dose 2 µM), the “cleaved PARP positive nuclei fraction” value turned out to be 49.4%.
To `O=C(O)c1ccc(-c2c[nH]c3ncc(-c4ccccc4)cc23)cc1C1CCCC1` + O=C(Oc1ccc([N+](=O)[O-])cc1)N1CCC(C(O)(c2ccc3c(c2)OCO3)c2ccc3c(c2)OCO3)CC1 [JZL184] (first compound 0.16 µM, partner dose 1 µM) belongs 67.8%; to `C[C@@H]1CCN(C(=O)CC#N)C[C@@H]1N(C)c1ncnc2[nH]ccc12` + Cc1cc(SCc2sc(-c3ccc(C(F)(F)F)c(F)c3)nc2C)ccc1OCC(=O)O [GW0742] (first compound 1 µM, partner dose 2 µM), 140%.
To `O=C(Nc1cccc(Cl)c1)Nc1ncc(CCNc2ncnc3ccsc23)s1` + Cc1cc(SCc2sc(-c3ccc(C(F)(F)F)c(F)c3)nc2C)ccc1OCC(=O)O [GW0742] (first compound 0.0008 µM, partner dose 2 µM) belongs 83.3%; to `C[C@]12O[C@H](C[C@]1(O)CO)n1c3ccccc3c3c4c(c5c6ccccc6n2c5c31)CNC4=O` [Lestaurtinib] + COc1cc2ncnc(Nc3ccc(Oc4ccccc4)cc3)c2cc1OC [SrcI1] (first compound 0.004 µM, partner dose 2 µM), 111%; to `C[As](C)SC[C@H](NC(=O)CC[C@H](N)C(=O)O)C(=O)NCC(=O)O` [Darinaparsin] + COc1ccc(COc2ccc(Cc3cnc(N)nc3N)cc2OC)cc1 [GW2580] (first compound 0.4 µM, partner dose 1 µM), 173%.
Regarding `C[C@]12O[C@H](C[C@]1(O)CO)n1c3ccccc3c3c4c(c5c6ccccc6n2c5c31)CNC4=O` [Lestaurtinib] + COc1ccc(-c2ccc3c(N4CCOCC4)nc(N4C[C@@H](C)O[C@@H](C)C4)nc3n2)cc1CO [KU0063794] (first compound 0.004 µM, partner dose 0.02 µM), the “cleaved PARP positive nuclei fraction” value is 97.2%.
In the case of `O=S(=O)(c1ccccc1)N(CC(F)(F)F)c1ccc(C(O)(C(F)(F)F)C(F)(F)F)cc1` + Cc1cc(SCc2sc(-c3ccc(C(F)(F)F)c(F)c3)nc2C)ccc1OCC(=O)O [GW0742] (first compound 1.4 µM, partner dose 2 µM) it was 15.1%; in that of `COc1ccc(COc2ccc(Cc3cnc(N)nc3N)cc2OC)cc1` + Cc1cc(SCc2sc(-c3ccc(C(F)(F)F)c(F)c3)nc2C)ccc1OCC(=O)O [GW0742] (first compound 1 µM, partner dose 2 µM), 74.2%; in that of `C[As](C)SC[C@H](NC(=O)CC[C@H](N)C(=O)O)C(=O)NCC(=O)O` [Darinaparsin] + CCc1ccc(CCOc2ccc(CC3SC(=O)NC3=O)cc2)nc1 [pioglitazone] (first compound 0.4 µM, partner dose 2 µM), 85.8%.
